In publication PMC12670160, “A drug-repurposing screen of FDA- and EMA-approved drugs identifies two NF-κB inhibitors active against eumycetoma” (Journal of Antimicrobial Chemotherapy, 2025):
Structures can show the parent of a compound that is named as a salt. Hit rate of the full screen: of about 5,300 compounds, about 130 (2.5%) showed an effect of 50% or more. The list shows a part of the results.

test system: M. mycetomatis strain mm55; conditions: primary screen, metabolic activity vs growth control; 96 h, 2 µM; inhibitor

SMILES	% viability
O=C1C2CC=CCC2C(=O)N1SC(Cl)(Cl)Cl (stereo not shown) [ONC0003351, captan]	76.61%
Nc1nc(Nc2ccc(S(N)(=O)=O)cc2)nn1C(=O)c1c(F)cccc1F [ONC0004695, jnj7706621]	96.52%
CC1=C(C(=O)O)N2C(=O)[C@@H](NC(=O)[C@H](N)c3ccc(O)cc3)[C@H]2SC1 [ONC0000772, cefadroxil]	67.74%
C[C@@H]1[C@H](O)[C@@H](C)/C=C/C=C/CC/C=C/C=C/C=C/C=C/[C@H](O[C@@H]2O[C@H](C)[C@@H](O)[C@H](N)[C@@H]2O)C[C@@H]2O[C@](O)(C[C@@H](O)[C@H](O)CC[C@@H](O)C[C@@H](O)C[C@@H](O)CC(=O)O[C@H]1C)C[C@H](O)[C@H]2C(=O)O [ONC0002036, nystatin]	93.36%
N#CC(=C(/N)Sc1ccccc1N)/C(C#N)=C(\N)Sc1ccccc1N [ONC0002620, u0126]	70.31%
Cc1[nH]c(/C=C2\C(=O)Nc3ccc(S(=O)(=O)Cc4c(Cl)cccc4Cl)cc32)c(C)c1C(=O)N1CCC[C@@H]1CN1CCCC1 [ONC0001382, pha665752]	106.2%
O=C(O)CC/C=C\C[C@@H]1CO[C@H](c2ccccc2Cl)O[C@@H]1c1ccccc1O [ONC0000168, ici192605]	108.7%
COc1ccc(CNCc2cccc3ccccc23)cc1 [ONC0005066, ml133 hcl]	127.2%
NC(=O)[C@@H](CCC(F)(F)F)N(Cc1ccc(-c2ncon2)cc1F)S(=O)(=O)c1ccc(Cl)cc1 [ONC0004660, bms708163 avagacestat]	74.48%
COc1ccc(S(=O)(=O)Nc2cc(Cl)cc(Cl)c2OC)cc1N1CCNCC1 [ONC0000041, sb399885]	47.84%
CN(CCOc1ccc(-c2ccc3c(c2)OCO3)cc1C(C)(C)C)CC(=O)O [ONC0000080, ly2365109]	127%
c1ccc2c(-c3cnn4cc(-c5ccc(N6CCNCC6)cc5)cnc34)ccnc2c1 [ONC0002248, ldn193189 hydrochloride]	98.97%
CC(C)(Oc1ccc(C2CC2(Cl)Cl)cc1)C(=O)O (stereo not shown) [ONC0005211, ciprofibrate]	132.1%
Cc1csc(NC(=O)CSc2ccc(-c3ccccc3)nn2)n1 [ONC0001246, vu 0240551]	69.07%
Cn1nccc1Nc1nccc(-c2ccn(C(CO)c3ccc(Cl)c(F)c3)c(=O)c2)n1 (stereo not shown) [ONC0004559, gdc0994]	64.97%
N[C@@H](CSS(=O)(=O)O)C(=O)O [ONC0001532, ssulfolcysteinesodiumsalt]	120.8%
CCN1CCC[C@H]1CNC(=O)c1cc(S(N)(=O)=O)ccc1OC [ONC0000775, levosulpiride]	92.97%
C[C@H](NC(=O)[C@@H](N)Cc1ccc(O)cc1)C(=O)NCC(=O)N(C)[C@@H](Cc1ccccc1)C(=O)N[C@H](CO)CC[S+](C)[O-] (stereo partly shown) [ONC0001940, dala2nmephe4 methionin ool5enkephalin]	95.76%
Clc1ccc(-c2nc3sccn3c2/C=N/OCc2ccc(Cl)c(Cl)c2)cc1 [ONC0002602, citco]	80.8%
CCCCCCCCCCCC(=O)O [ONC0003515, dodecanoic acid]	63.61%

SMILES	% viability
CC1CCN(CCCC(=O)c2ccc(F)cc2)CC1 [ONC0003570, melperone]	111.5%
Cc1nc2ccccc2c(-c2ccc3c4c(ccnc24)CCO3)c1[C@H](OC(C)(C)C)C(=O)O [ONC0003508, bi 224436]	66.47%
O=C(O)[C@@H](S)[C@@H](S)C(=O)O [ONC0003848, dimercaptosuccinicacid]	69.66%
COc1ccc(-c2oc3c(CC=C(C)C)c(O)cc(O)c3c(=O)c2O)cc1 [ONC0001762, icaritin]	114%
O=C1C(Cl)=C(NCCN2CCOCC2)C(=O)c2ncccc21 [ONC0002516, nsc663284]	81.33%
O=C(Nc1ccc(-c2ccncc2)cc1)N[C@H](CO)c1ccccc1 [ONC0000213, as1892802]	69.04%
O=S(=O)(NCCCCCCc1ccccc1)c1cccc2c(Cl)cccc12 [ONC0002705, sc9]	87.04%
O=C(CCN1CCN(C(=O)OCc2cc(Cl)cc(Cl)c2)CC1)c1ccc2[nH]c(=O)oc2c1 [ONC0000928, pf8380]	65.28%
O=C(Nc1ccccc1)Nc1ccc(-c2ccc(C(=O)[C@@H]3CCC[C@@H]3C(=O)O)cc2)cc1 [ONC0005068, a 922500]	83.85%
CC(=O)c1ccc(NS(C)(=O)=O)c(Oc2ccc(F)cc2F)c1 [ONC0001180, fk 3311]	85.6%
CCOCc1cc(OC)c(-c2ccc(C[C@H](NC(=O)c3c(F)cccc3F)C(=O)O)cc2)c(OC)c1 [ONC0000992, firategrast]	77.08%
CC(O)(C(=O)Nc1ccc(S(=O)(=O)c2ccccc2)cc1)C(F)(F)F (stereo not shown) [ONC0001465, zm226600]	52.05%
N[C@@H](CCC(=O)N[C@@H](CSN=O)C(=O)NCC(=O)O)C(=O)O [ONC0003929, snitrosoglutathione]	63.41%
CC(CCc1ccc(O)cc1)NCCc1ccc(O)c(O)c1 (stereo not shown) [ONC0001208, dobutamine hydrochloride]	106.8%
CCCNS(=O)(=O)Nc1ncnc(OCCOc2ncc(Br)cn2)c1-c1ccc(Br)cc1 [ONC0004375, macitentan]	136.6%
CCOC(=O)CSCCC1NC(C(=O)O)CS1 (stereo not shown) [ONC0003361, letosteine]	74.26%
CC1=C(C(=O)OCCN(Cc2ccccc2)c2ccccc2)C(c2cccc([N+](=O)[O-])c2)C(P2(=O)OCC(C)(C)CO2)=C(C)N1 (stereo not shown) [ONC0000208, efonidipinemonoethanolate]	72.76%
C1CCC2(CC1)CCNCC2 [ONC0002600, 44pentamethylenepiperidine]	78.96%
CC(=O)[C@H]1CC[C@H]2[C@@H]3CC=C4C[C@@H](O)CC[C@]4(C)[C@H]3CC[C@]12C [ONC0003199, pregnenolone]	77.25%
CS(=O)(=O)c1ccc(Oc2cc(F)cc(C#N)c2)c2c1[C@H](O)C(F)(F)C2 [ONC0001118, pt2385]	47.48%

SMILES	% viability
[N-]=[N+]=N[C@]1(CO)O[C@@H](n2ccc(N)nc2=O)[C@@H](O)[C@@H]1O [ONC0000950, ro9187]	66.7%
CC[C@]12CCCN3CCc4c(n(c5ccccc45)[C@@](O)(C(=O)OC)C1)[C@@H]32 [ONC0003425, vincamine]	89.22%
CCOC(=O)c1ccc(C#Cc2ccc3c(c2)C(C)(C)CCS3)nc1 [ONC0004840, tazarotene avage]	98.67%
CC(C)N(CCC(=O)c1ccc2ccccc2c1)Cc1ccccc1 [ONC0001511, zm39923]	104.1%
CN1C2CCC1CC(OC(c1ccc(F)cc1)c1ccc(F)cc1)C2 (stereo not shown) [ONC0001429, 3alphabis4fluorophenylmethoxytropane]	64.19%
COc1cnc(-n2cnc(C)n2)c2[nH]cc(C(=O)C(=O)N3CCN(C(=O)c4ccccc4)CC3)c12 [ONC0005617, temsavir]	66.52%
CCC(C)(C)c1ccc(CC(C)CN2C[C@@H](C)O[C@@H](C)C2)cc1 (stereo partly shown) [ONC0002289, amorolfine hydrochloride]	102.4%
CC1=NN(c2ccc(C(=O)O)cc2)C(=O)C1=Cc1ccc(-c2cc(C)c(C)cc2[N+](=O)[O-])o1 [ONC0005189, c646]	86.23%
CC(=O)N(O)C/C=C/c1cccc(Oc2ccccc2)c1 [ONC0002118, bwa4c]	107.7%
Cc1ccc2c(c1)Cc1c(C(=O)NN3CCCCC3)nn(-c3ccc(Cl)cc3Cl)c1-2 [ONC0003618, gp1a]	65.76%
O=c1[nH]c(=O)n([C@H]2C[C@H](O)[C@@H](CO)O2)cc1/C=C/Br [ONC0002734, e52bromovinyl2deoxyuridine]	104.4%
COc1ccc(-c2cc3c(C)nc(N)nc3n([C@H]3CC[C@H](OCCO)CC3)c2=O)cn1 [ONC0005035, pf04691502]	124.7%
NCC(=O)N1C[C@H](NC(=O)c2ccccc2)C[C@H]1C(=O)O [ONC0002056, danegaptide hydrochloride]	91.92%
CNC[C@@H]1CC[C@@H](N)[C@@H](O[C@H]2[C@H](O)[C@@H](O[C@H]3OC[C@](C)(O)[C@H](NC)[C@H]3O)[C@H](N)C[C@@H]2N)O1 [ONC0000290, micronomicin sulfate]	71.21%
Nc1nc2c(ncn2[C@@H]2O[C@H](CO)[C@@H](O)[C@H]2O)c(=S)[nH]1 [ONC0004689, thioguanosine]	121.6%
CCOC(=O)Nc1ccc(NCc2ccc(F)cc2)nc1N.O=C(O)/C=C\C(=O)O [ONC0001304, flupirtine maleate]	68.53%
CCC[C@@H](NC(=O)N1C(=O)C(CC)(CC)[C@@H]1Oc1ccc(C(=O)N2CCN(C)CC2)cc1)c1ccc2c(c1)OCO2 [ONC0002097, dmp 777]	57.58%
CN[C@@H]1Cc2cccc3[nH]c(=O)n(c23)C1 [ONC0005404, sumanirole]	122.2%

Part of the list above, bar-delimited:
SMILES | % viability
CC(=O)c1ccc(NS(C)(=O)=O)c(Oc2ccc(F)cc2F)c1 [ONC0001180, fk 3311] | 85.6%
CCOCc1cc(OC)c(-c2ccc(C[C@H](NC(=O)c3c(F)cccc3F)C(=O)O)cc2)c(OC)c1 [ONC0000992, firategrast] | 77.08%
CC(O)(C(=O)Nc1ccc(S(=O)(=O)c2ccccc2)cc1)C(F)(F)F (stereo not shown) [ONC0001465, zm226600] | 52.05%
N[C@@H](CCC(=O)N[C@@H](CSN=O)C(=O)NCC(=O)O)C(=O)O [ONC0003929, snitrosoglutathione] | 63.41%
